Measurements taken from PubChem BioAssay AID493014 (National Center for Advancing Translational Sciences (NCATS), 2011).
Among all 340,000 compounds or so, about 170 (0.05%) were called active. This list was built around the results that the source calls inconclusive (neither active nor inactive); the mix of calls is not that of the screen. Calls come from the whole dose curve; as a rule, active = well fitted inhibition curve with a large enough effect in the signal ratio, with a control signal flat (not every such curve was filed as active); inconclusive = small, poorly fitted or top-dose-only effect, or effect the other way, or a change in a side signal; inactive = flat fitted curve, though single readings scatter; the % refers to the signal ratio. Where the call is inconclusive, the potency comes from a doubtful curve fit.

Experiment: qHTS Assay to Find Inhibitors of Chronic Active B-Cell Receptor Signaling;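 for activity change, negative = inhibition: plate controls were basal doxycycline-induced cells for no effect and cells given 10 µM MG132 for full effect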
Conditions: ABC-DLBCL IkBa-CBG/CBR reporter, luminescence ratio (green luciferase fused to IkBa over red control in TMD8 lymphoma cells), 4 h; activity change, negative = inhibition: at 46.1 µM (top of the series)
Method in brief: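 Doxycycline induced both beetle luciferases in TMD8 lymphoma cells; IKK-driven degradation limits the IkappaBalpha-fused green signal, while red luminescence normalises for cell number and nonspecific effects. Compounds tested up to 46 uM, 4 hrs.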
Potency is the fitted concentration of half-maximal effect.

| SMILES | activity change, negative = inhibition | Potency |
| --- | --- | --- |
| Cc1ccc(Cl)cc1NC(=O)CN1CCN(S(=O)(=O)N2CCOCC2)CC1 | inconclusive: -12.3% | – |
| Cc1cc(C)c2nc(SCC#N)cc(C)c2c1 | inconclusive: -0.4% | – |
| CC1CC(=O)NN=C1c1ccc(N(C)C)c([N+](=O)[O-])c1 (stereo not drawn) | inconclusive: 0.863% | – |
| COc1ccccc1-n1cnc2cc(C(=O)NCc3ccco3)ccc21 | – | inconclusive: 13 µM [falling, partial curve] |
| CCN(CC)c1ccc2c(-c3ccc(S(=O)(=O)O)cc3S(=O)(=O)[O-])c3ccc(=[N+](CC)CC)cc-3oc2c1 | – | inconclusive: 2.82 µM [rising, partial curve] |
| Cc1occc1C(=O)Nc1cccc(C(=O)O)c1 | – | inconclusive: 29.1 µM [falling, single point] |
| COc1ccc(C)cc1Nc1n[n+](-c2ccccc2)c(-c2cccc(Cl)c2Cl)s1 | – | inconclusive: 17.8 µM [falling, partial curve, poor fit] |
| COc1cc2c(C(=O)N3CCN(C)CC3)c(C)oc2cc1Br | inactive | – |
| O=C(Nc1ccccc1Cl)c1csc(-c2cccnc2)n1 | inconclusive: 5.25% | – |
| Cc1sc(NC(=O)C2=COCCO2)nc1-c1ccc(F)cc1 | – | inconclusive: 2.59 µM [rising, full curve, poor fit] |
| COc1cc2c(cc1OC)CN(C(=O)c1cc(=O)c3ccccc3o1)CC2 | – | inconclusive: 13 µM [falling, partial curve] |
| COc1ccccc1-n1c(-c2ccc(NS(C)(=O)=O)cc2)n[nH]c1=S | – | inconclusive: 0.651 µM [falling, full curve, poor fit] |
| CCCOc1ccccc1C1NC(=O)NC(C)=C1C(=O)OCc1ccccc1 (stereo not drawn) | – | inconclusive: 20.6 µM [falling, partial curve] |
| Cc1ccccc1C(=O)NC(=S)Nc1ccccc1C(=O)O | – | inconclusive: 22.4 µM [falling, single point] |
| O=C1Nc2ccccc2C12Nc1ccccc1-c1nc3ccccc3n12 (stereo not drawn) | inactive | – |
| O=C(/C=C(O)/C=C/c1ccc(O)cc1)/C=C/c1ccc(O)cc1 | – | inconclusive: 25.9 µM [falling, single point] |
| O=C(O)c1cccnc1NC1CCCC1 | – | inconclusive: 1.16 µM [falling, partial curve] |
| COc1ccc(N=Cc2nc(-c3ccco3)oc2O)cc1 | – | inconclusive: 16.4 µM [falling, partial curve] |
| CSc1nc(C=Nc2ccccc2Cl)c(O)n1Cc1cccc(Cl)c1 | inconclusive: -3.74% | – |
| COCC1CCCCN1C(=O)C1CCN(c2nc(-c3ccccc3)nc3c2CCC3)CC1 (stereo not drawn) | inconclusive: 0.13% | – |
| Nc1c(C(=O)NCc2ccco2)nnn1CC(=O)Nc1ccc2c(c1)OCO2 | inconclusive: -15.3% | – |
| NC(=O)c1sc2cc(C(F)(F)F)cnc2c1-c1ccccc1 | inconclusive: 5.74% | – |
| COCCn1c(SCC(=O)/C=C2\N(C)c3ccccc3C2(C)C)nnc1-c1ccncc1 | inconclusive: 2.54% | – |
| CCO[C@@H]1OC(C(N)=O)=C[C@H](c2ccc3c(c2)OCO3)[C@H]1CCCO | inactive | – |
| CCOC(=O)C(CCCOc1cccc(CC)c1)C(=O)OCC | – | inconclusive: 23.1 µM [falling, single point] |
| O=C(/C=C/c1cccc([N+](=O)[O-])c1)N1CCN(C(=O)c2ccco2)CC1 | inconclusive: 4.09% | – |

3 entries from above, arranged by length of the SMILES, low to high:

| SMILES | activity change, negative = inhibition | Potency |
| --- | --- | --- |
| Cc1occc1C(=O)Nc1cccc(C(=O)O)c1 | – | inconclusive: 29.1 µM [falling, single point] |
| O=C(Nc1ccccc1Cl)c1csc(-c2cccnc2)n1 | inconclusive: 5.25% | – |
| Nc1c(C(=O)NCc2ccco2)nnn1CC(=O)Nc1ccc2c(c1)OCO2 | inconclusive: -15.3% | – |

Full records, quoted from the list:
`COc1ccccc1-n1cnc2cc(C(=O)NCc3ccco3)ccc21` as listed: Potency: inconclusive: 13 µM [falling, partial curve]
`COCC1CCCCN1C(=O)C1CCN(c2nc(-c3ccccc3)nc3c2CCC3)CC1` (stereo not drawn) as listed: activity change, negative = inhibition: inconclusive: 0.13%
`Cc1sc(NC(=O)C2=COCCO2)nc1-c1ccc(F)cc1` as listed: Potency: inconclusive: 2.59 µM [rising, full curve, poor fit]

Further records

| SMILES | activity change, negative = inhibition | Potency |
| --- | --- | --- |
| CCOc1ccc(N2CC(C(=O)Nc3ccncc3)CC2=O)cc1 (stereo not drawn) | inactive | – |
| Cc1ccccc1C(=O)NNC(=O)CSc1nc2ccccc2c(=O)[nH]1 | – | inconclusive: 31.6 µM [falling, partial curve] |
| Fc1cccc(/C=N/Nc2nccnc2Cl)c1 | inactive | – |
| O=C(CN1C(=O)C2CC=CCC2C1=O)OCC(=O)c1ccc(Cl)c([N+](=O)[O-])c1 (stereo not drawn) | inconclusive: -8.63% | – |
| CC(=O)Nc1ccc(Nc2nc(-c3ccccc3)nc3ccccc23)cc1 | – | inconclusive: 5.62 µM [falling, single point] |
| O=C(NC(=S)Nc1ccccc1N1CCCCC1)c1ccc(F)cc1 | inconclusive: 12.1% | – |
| O=C(Cc1ccccc1)Nc1ccc2[nH]ncc2c1 | inconclusive: -18.8% | – |
| c1cc(CNc2ccc3c(c2)OCO3)ccn1 | inconclusive: 3.77% | – |
| Cc1ccc(-c2cccc(NC(=O)C3C(C(=O)O)[C@@H]4C=C[C@H]3C4)c2)o1 (stereo partly drawn) | inactive | – |
| C=CCc1cc(/C=C2/NC(=O)N(CC(=O)OC)C2=O)cc(OC)c1O | inconclusive: 1.82% | – |
| O=C(c1csc2c1CCCC2)N1CCN(c2ncccn2)CC1 | inconclusive: -2.31% | – |
| Cc1ccc(S(=O)(=O)N2CCN(C(=O)c3ccc([N+](=O)[O-])cc3)C2)cc1 | – | inconclusive: 3.98 µM [falling, partial curve, poor fit] |
| COC(=O)c1ccccc1NC(=O)c1ccc(-c2ccccc2F)o1 | – | inconclusive: 0.366 µM [falling, full curve, poor fit] |
| O=C(c1ccccc1)c1coc2c1C(=O)c1ccccc1C2=O | inactive | – |
| CCOCCCN(Cc1cc2cc(C)cc(C)c2[nH]c1=O)C(=O)N(CC)CC | inactive | – |
| CC(C)c1cc(C(=O)NCCc2ccccc2)no1 | – | inconclusive: 6.31 µM [rising, single point] |
| c1ccc2c(c1)OCCc1c-2[nH]c2ccccc12 | inconclusive: 8.34% | – |
| CS(=O)(=O)c1nc2ccccc2n1Cc1ccccc1 | inactive | – |
| COc1ccc(N2C(=O)CSC2c2cccc(OC)c2OC)cc1 (stereo not drawn) | inconclusive: -0.802% | – |
| O=C(Oc1cc(-c2ccccc2)no1)c1ccc(F)cc1 | – | inconclusive: 5.8 µM [falling, single point] |
| N#C/C(=C\c1ccccc1[N+](=O)[O-])C(=O)NC1CCCCC1 | – | inconclusive: 35.5 µM [falling, single point] |
| CC(=O)Oc1ccc2nc(-c3ccc(Br)o3)oc(=O)c2c1 | – | inconclusive: 0.562 µM [falling, partial curve, poor fit] |
| CCc1c(C)nc(SCC(=O)Nc2ccc3c(c2)OCCO3)[nH]c1=O | – | inconclusive: 35.5 µM [falling, single point] |
| Cc1ccc(-c2cc(N)nc(-c3ccccc3)c2)cc1 | inactive | – |
| CCN(C[C@H]1N[C@@](Cc2ccccc2)(C(=O)OC)[C@H]2C(=O)N(C)C(=O)[C@@H]12)C(=O)Nc1ccc(Cl)cc1 | inconclusive: 7.47% | – |
| c1ccc2c(c1)[nH]c1nc(SCCN3CCOCC3)nnc12 | inconclusive: 5.7% | – |

| SMILES | activity change, negative = inhibition | Potency |
| --- | --- | --- |
| CCc1cc2c(=O)nc3n(c2s1)Cc1ccccc1/C3=C(/O)c1ccccc1Cl | – | inconclusive: 1.84 µM [rising, full curve] |
| CCOC(=O)c1c(NC(=O)CS(=O)(=O)c2cn(CC)c3ccccc23)sc2c1CCCCC2 | inconclusive: 2.71% | – |
| CCc1ccc2oc(C(=O)NCC(c3ccc(OC)cc3)N3CCCCC3)c(C)c2c1 (stereo not drawn) | inactive | – |
| CCOC(=O)c1sc(-c2cccc(C(F)(F)F)c2)nc1O | inconclusive: 3.6% | – |
| Cc1cccc(-c2cc(C(=O)NCc3ccccn3)c3ccccc3n2)c1 | inactive | – |
| COc1ccc(Nc2nc(C(=O)NCc3ccco3)cs2)cc1 | – | inconclusive: 15.8 µM [falling, partial curve, poor fit] |
| O=C(CN1C(=O)COc2ccccc21)Nc1ccccc1F | inconclusive: -18.5% | – |
| S=c1[nH]nc(-c2cccs2)n1Cc1ccccc1 | inconclusive: 1.22% | – |
| COc1cccc(NCc2cc3c(C(C)(C)C)nn(-c4ccccc4)c3[nH]c2=O)c1 | inconclusive: 6.36% | – |
| CC(NC(=O)/C(C#N)=C/c1cccs1)c1ccccc1 (stereo not drawn) | inconclusive: -0.0803% | – |
| CCCN1CCN(CCCNC(=O)c2ccc3nc(N4CCC(C)CC4)sc3c2)CC1 | – | inconclusive: 1.78 µM [falling, partial curve] |
| Cc1cc(NC(=O)CSc2nc3ccsc3c(=O)n2NC(=O)c2ccccc2)no1 | inconclusive: 12.8% | – |
| CC1CCC(C(C)C)C(OC(=O)COC(=O)c2cccn2C)C1 (stereo not drawn) | inconclusive: 4.89% | – |
| O=C(CCl)Nc1ccc(Sc2ccc(NC(=O)CCl)cc2)cc1 | – | inconclusive: 25.1 µM [falling, single point] |
| CCCS(=O)(=O)N1CCc2ccc(NC(=O)C3CCCO3)cc2C1 (stereo not drawn) | inactive | – |
| C/C(=N\NC(=O)c1ccc(-c2ccccc2)cc1)C1C(=O)c2ccccc2C1=O | inactive | – |
| COc1ccc(NC(=O)CC2CC3CCC2C3)cc1S(=O)(=O)N1CCOCC1 (stereo not drawn) | inconclusive: -0.011% | – |
| N#Cc1c(-c2ccccc2)cc(-c2ccccc2)[nH]c1=O | inconclusive: -1.5% | – |
| COc1cc(/C=N/NC(=O)c2nonc2C)ccc1O | inconclusive: -21.7% | – |
| CCOc1ccc2[nH]c3c(NCCOC)ncnc3c2c1 | inconclusive: 11.6% | – |
| Cc1nc2cc(NC(=O)N3c4ccccc4CC3C)ccc2n1C (stereo not drawn) | – | inconclusive: 18.4 µM [falling, partial curve] |
| Cc1cc(=O)oc2c3c(cc(OCC(=O)Nc4ccc(CCO)cc4)c12)OC(C)(C)CC3 | inconclusive: 1.99% | – |
| O=C(N/N=C/c1ccc(Br)o1)c1ccc2c(c1)OCCO2 | inconclusive: -3.16% | – |
| O=S(=O)(c1ccc2ccccc2c1)N1CCCCCC1 | – | inconclusive: 10 µM [falling, partial curve] |
| CCCN(CCC)Cc1cc2ccccc2c2c1COC2 | – | inconclusive: 18.4 µM [rising, partial curve, poor fit] |
| C[C@@H]1C[C@H](Nc2ccccc2)c2ccccc2N1C(=O)c1cccnc1 | – | inconclusive: 3.26 µM [rising, partial curve, poor fit] |
